Test results from publication PMC12419896.
Results are given in words; binding and its absence hold for the method and conditions named. Binding seen in cells or lysates may run through a third protein.

Molecular target: T1, MEX3B protein (mouse (endogenous in NPCs from CD1 embryos)) (UniProt Q69Z36)
T1 sequence: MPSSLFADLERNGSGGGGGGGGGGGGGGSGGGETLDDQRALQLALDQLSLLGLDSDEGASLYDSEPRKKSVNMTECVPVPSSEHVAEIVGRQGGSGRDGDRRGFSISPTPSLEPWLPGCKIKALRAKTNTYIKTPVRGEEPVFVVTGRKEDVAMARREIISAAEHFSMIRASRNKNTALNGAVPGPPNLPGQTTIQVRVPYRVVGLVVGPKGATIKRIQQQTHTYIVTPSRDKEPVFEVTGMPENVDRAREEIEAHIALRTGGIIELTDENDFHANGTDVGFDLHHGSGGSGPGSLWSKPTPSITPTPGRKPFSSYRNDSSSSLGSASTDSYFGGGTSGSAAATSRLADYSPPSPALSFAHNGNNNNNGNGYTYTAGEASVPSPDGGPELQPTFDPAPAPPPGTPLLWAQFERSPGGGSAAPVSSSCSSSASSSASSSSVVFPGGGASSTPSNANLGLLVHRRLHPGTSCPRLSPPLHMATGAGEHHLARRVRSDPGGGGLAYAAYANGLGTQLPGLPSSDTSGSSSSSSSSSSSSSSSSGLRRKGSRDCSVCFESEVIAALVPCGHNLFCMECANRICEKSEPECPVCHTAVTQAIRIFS
Test: co-IP; endogenous MEX3B immunoprecipitated with MEX3B antibody and Protein-G agarose from lysate of NPCs grown with or without bFGF for 5 days; 20 mM Tris pH 7.5, 100 mM KCl, 5 mM MgCl2, 0.5% Nonidet P-40, 4°C; washes up to 200 mM KCl; IgG control; western blot for REST

B1: REST protein (protein, UniProt Q8VIG1 1-1082)
chain: MATQVMGQSSGGGSLFNNSANMGMALTNDMYDLHELSKAELAAPQLIMLANVALTGEASGSCCDYLVGEERQMAELMPVGDNHFSESEGEGLEESADLKGLENMELGSLELSAVEPQPVFEASAAPEIYSANKDPAPETPVAEDKCRSSKAKPFRCKPCQYEAESEEQFVHHIRIHSAKKFFVEESAEKQAKAWESGSSPAEEGEFSKGPIRCDRCGYNTNRYDHYMAHLKHHLRAGENERIYKCIICTYTTVSEYHWRKHLRNHFPRKVYTCSKCNYFSDRKNNYVQHVRTHTGERPYKCELCPYSSSQKTHLTRHMRTHSGEKPFKCDQCNYVASNQHEVTRHARQVHNGPKPLNCPHCDYKTADRSNFKKHVELHVNPRQFNCPVCDYAASKKCNLQYHFKSKHPTCPSKTMDVSKVKLKKTKKREADLLNNAVSNEKMENEQTKTKGDVSGKKNEKPVKAVGKDASKEKKPGSSVSVVQVTTRTRKSAVAAETKAAEVKHTDGQTGNNPEKPCKAKKNKRKKDAEAHPSEEPVNEGPVTKKKKKSECKSKIGTNVPKGGGRAEERPGVKKQSASLKKGTKKTPPKTKTSKKGGKLAPKGMGQTEPSSGALAQVGVSPDPALIQAEVTGSGSSQTELPSPMDIAKSEPAQMEVSLTGPPPVEPAQMEPSPAKPPQVEAPTYPQPPQRGPAPPTGPAPPTGPAPPTEPAPPTGLAEMEPSPTEPSQKEPPPSMEPPCPEELPQAEPPPMEDCQKELPSPVEPAQIEVAQTAPTQVQEEPPPVSEPPRVKPTKRSSLRKDRAEKELSLLSEMARQEQVLMGVGLVPVRDSKLLKGNKSAQDPPAPPSPSPKGNSREETPKDQEMVSDGEGTIVFPLKKGGPEEAGESPAELAALKESARVSSSEQNSAMPEGGASHSKCQTGSSGLCDVDTEQKTDTVPMKDSAAEPVSPPTPTVDRDAGSPAVVASPPITLAENESQEIDEDEGIHSHDGSDLSDNMSEGSDDSGLHGARPTPPEATSKNGKAGLAGKVTEGEFVCIFCDRSFRKEKDYSKHLNRHLVNVYFLEEAAEEQEEQEEREEQE
  binding: no binding
